From PubChem BioAssay AID1347423 (Functional Genomics Laboratory (NCATS/FGL), 2020)
The campaign covered roughly 52,000 sequences. About 210 (0.4%) were called active.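 How the source made its calls: active means gene whose silencing raises cell survival under the drug, median off-target-corrected z-score across its silencing RNAs 2 or more; inactive means the rest.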 The list shows a part of the results.

experiment: Resistance to Poly (ADP-Ribose) Polymerase inhibitor: Gene Identification via Genome-wide siRNA Screen; conditions: mouse BRCA2 R2336H ES cells, olaparib, CellTiter-Glo viability; active compounds read high
How it was run: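 Mouse BRCA2 R2336H ES cells were reverse-transfected with siRNA (20 nM final), treated at 48 h with 500 nM olaparib, and read by CellTiter-Glo after 72 h. Scores: MAD-based z per siRNA, median per gene, seed off-target correction.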

Sequence | z-score
GCACUAUCGUUUUUCAAUCTT against B130008E12Rik | inactive: -0.00146
CGAGAAUUUUACAUGAGAGTT against Fthfsdc1 | inactive: -0.0647
GGACCUCAUUGUUUAGUCATT against Cmya5 | inactive: -0.607
GGAUAUCGGGAUGAAAUUGTT against Meig1 | inactive: -1.34
GAUGUGUGCUCAUGGUUUUTT against Olfr622 | inactive: 0.281
GGUCUCCAUGAGUUUGAUUTT against Pik3cd | inactive: -0.713
GGUCAACCACAGCUACUGCTT against Pias4 | inactive: -0.422
GGUACCAUUCAGCAAUAAGTT against Muc19 | inactive: -0.618
GGCUCUGGACCAACUACUATT against A830043J08Rik | inactive: -1.48
CCAGUGUGAAAUGAUCCUUTT against Hddc2 | inactive: 1.68
GGACUUCUCCAAUGACCUGTT against Creb3l1 | inactive: 2.51
GCAAUCAUUAAGCAGAUCATT against Prkce | inactive: -2.49
GCACGUUAGUAAGUAGUUATT against 9630054F20Rik | inactive: -0.343
GGCAACAGUUGGCUAUCUUTT against Entpd7 | inactive: 0.128
GAUCUUACUCAGCAGACCUTT against Ifna2 | inactive: 1.72
GGACAAGCAUGUUUUCUGCTT against V1rb7 | inactive: -0.509
GCGUAUGCCAAGGAACUCATT against 1110051M20Rik | inactive: -0.963
GCGGAUUAACCUCUGUGGCTT against Gm580 | inactive: 0.574
GGUGAUCUAUCCCUAUUCATT against 2810457I06Rik | inactive: -1.56
CCAGGUCUUAAUUACAGAGTT against Capza1 | inactive: -0.351
GGAAGAUGCCUACUUCAGATT against 4632433K11Rik | inactive: -0.892
GGCAGCAGUUAAUUUACUUTT against Mmp21 | inactive: -1.35
GGCCUGCUACUUUUGAUGCTT against Olfr166 | inactive: -0.523
GGAAGUUCGUGGAAGGCAATT against Pck1 | inactive: -0.614
GGCUUUGUUGACCACUCAGTT against Ndst2 | inactive: -0.435
CGGAUUCUAAAUGCUGUAATT against Aox3 | inactive: -0.551

Some of the entries above, reformatted.
Sequence	z-score
GGUCAACCACAGCUACUGCTT against Pias4	inactive: -0.422
GGUACCAUUCAGCAAUAAGTT against Muc19	inactive: -0.618
GGCUCUGGACCAACUACUATT against A830043J08Rik	inactive: -1.48
CCAGUGUGAAAUGAUCCUUTT against Hddc2	inactive: 1.68
GGACUUCUCCAAUGACCUGTT against Creb3l1	inactive: 2.51
GCAAUCAUUAAGCAGAUCATT against Prkce	inactive: -2.49
GCACGUUAGUAAGUAGUUATT against 9630054F20Rik	inactive: -0.343

(continued)

Sequence | z-score
GCAAGAACAUUAUGAAAGUTT against Epb4.1 | inactive: -0.422
GGCAGCUCAGGAAAAUAAATT against Htr4 | inactive: -0.854
GGAUUCACUGUUUUAUUCUTT against Fap | inactive: 0.849
GGAUAGCUUGAUCAAUCUUTT against 1500009M05Rik | inactive: 0.939
CCGAUUGUAUUUCUAUAAGTT against Klf2 | inactive: 1.04
GGGUGAGUUCUUAAGCUCATT against Ndufb2 | inactive: 0.0075
GGGAAAGGAGCCAUUAUUGTT against 2610110G12Rik | inactive: -1.85
GGUGGAACAGUGGAAUUCGTT against Grhpr | inactive: 0.0216
GUUCCCUGCCUGGCAGAAUTT against Foxd2 | inactive: 1.34
CCAGACCUGCGCUUUUUUGTT against Myod1 | inactive: -0.85
GGUACUGGAAGAGGAGGUATT against Ppil3 | inactive: -1.71
GGUCAGCAAAGAAAUCUUCTT against Exosc5 | inactive: -1.56
GGCCAGCAAUAAAACUGUCTT against Max | inactive: -2.41
GGAAUAACAGCCUUGUAUUTT against Slc25a15 | inactive: -0.0616
CGGAUUCAUUCGGAUGUGCTT against Rln1 | inactive: 0.422
GGUGUUUGUGACUCUGGGUTT against Mc4r | inactive: 1.06
GGACCUGCACUUAAUGUUUTT against Gabarap | inactive: -1.03
GGGACUAUGGUGUCAGAAATT against Clecsf10 | inactive: -0.611
CCAAACCCAGUUGCAUUUGTT against Slitrk5 | inactive: -1.43
GCUUAUUCGGGAUAAAGUATT against Elavl1 | inactive: 0.339
GCACGUACCUGAUAGUCCUTT against E330036I19Rik | inactive: 0.126
GGCUAACAUGGUUUUAUAUTT against Cldn1 | inactive: 0.429
GCUCUACGUUGAAGAGCGATT against Mad2l2 | inactive: 1.13
CCUGAAAGAAAAGAAGGACTT against 2610009E16Rik | inactive: -0.282
CGCAUGUUCAUAGGACUGCTT against Olfr1420 | inactive: -0.137
GCAUCGAUGGACUCUUUAUTT against Fbxo40 | inactive: -2.39

Sequence | z-score
CGGUAUAUAGAUCACUUCUTT against Olfr56 | inactive: -0.919
GGCUAAAGACCAGUAUUUGTT against Cdh7 | inactive: 0.465
CGCAGGUAUACAGGACUGCTT against LOC434768 | inactive: -0.724
GCUAGCGGCAGUAUUCUGUTT against Rab7 | inactive: 0.104
GGCCUUUAGCACCUACAGCTT against Olfr952 | inactive: -0.0308
CCAGAAAGAGAGCUCUAGGTT against Diap1 | inactive: 0.483
GCUCUAUUUUUUCAUCUCCTT against Olfr1415 | inactive: 0.662
GGUCGACAUUGAAGCUAUUTT against 0710005M24Rik | inactive: -0.779
CCAGAGUUUUCGAGGCCAATT against Olfr1349 | inactive: -1.01
GGGUCUGCUACAUCUUCGGTT against AI225782 | inactive: 0.468
GGAGCUAGAGCUGAAGGAUTT against 1810023F06Rik | inactive: -1.31
GGUUUGCACACACUUUGCCTT against Bai2 | inactive: 0.0839
GCUAAUAAAGCAUUCAGCATT against Bivm | inactive: -0.234
GGAUGAAGAGAAAGAGGAATT against Zfpm1 | inactive: -2.42
GCAUCAGCGUAAAAUGAUUTT against B130022O04Rik | inactive: 0.562
GGAACUGAGUAGUCUGAAGTT against Ap4e1 | inactive: -1.62
CGUGUCGCACAGGUACUUUTT against 1810009O10Rik | inactive: 0.463
GGACUGAAGCUGAAUUCCUTT against 0610012G03Rik | inactive: -0.232
GCCGUUGAAAAGGUUGGAUTT against Anp32b | inactive: 0.0472
CCAACCGUUUGCUACUCUUTT against Pgbpll | inactive: 0.877
CCUGGAAUCACACAUACCUTT against Abr | inactive: -0.383
GGUAUUCGUGGUGAUGGAGTT against AI325941 | inactive: 0.629
GGGUAUGUAUUACCUCGAGTT against Erbb3 | inactive: -1.72
GCAUCAUAAUGGGAUGCUGTT against P518 | inactive: 0.226
GGCAAUCCAGUUAUCCCAGTT against Prlpa | inactive: 0.819
GGCACAGAAAGAGAAAUACTT against Ivd | inactive: 2.91

Sequence | z-score
CCUAGAUAGGCUUGUAGCCTT against Mylpf | inactive: 0.74
GUCCUCCAUGAAGAAGCUCTT against Prm3 | inactive: 0.527
GGAUUCCAAUUUUAUUCCATT against Brca1 | inactive: -2.21
GGAAAAAUGACCACAUACUTT against Gucy1b2 | inactive: 0.000128
GCGAACAGUUGAAUAGAUUTT against 1200007B05Rik | inactive: 0.716
CCUGUGAUGUGAUCAUUAATT against Pigr | inactive: 2.29
GCUACACCGAGGACAGUUUTT against Nid2 | inactive: -1.85
GGGAUUAUGUGUCAUUUGUTT against Amaco | inactive: -0.675
GGAAUCAUUCACAGCAUGUTT against Arhgap15 | inactive: 1.01
GCAUGCUUGGAACAUUCCGTT against Catna3 | inactive: 0.571
CGAUUGCUCUUAACCCUUGTT against Zfp597 | inactive: -1.14
GGAAAUAGCCAGAAUAAGGTT against 1300006M19Rik | inactive: 0.153
GCAGUAGUCUUGGAAUUAATT against Bhlhb3 | inactive: -0.478
GGAUCUUACAGUCAGAGAGTT against Cdh4 | inactive: 1.32
GGCGAAUGGGAUUUCUAUUTT against 1700016F23Rik | inactive: 0.701
CGCACACACUGAACUUUAATT against Slco1a1 | inactive: 0.784
GUAGAAACUUCUCGUUCACTT against Tcl1b3 | inactive: 0.549
GGAGAUAUUAUUGUUCAGATT against Tmem2 | inactive: 0.226
GCCAAGCAUUAAGUGAUAATT against Setmar | inactive: -0.538
GAUCUCAGCGGUUCUAUAGTT against 2310034L04Rik | inactive: 2.44
CCCGUCACAUCUCAUUCCATT against Tpmt | inactive: 0.127
GGCAGCAUUAUCAACCGGATT against Rgs19ip3 | inactive: -0.177
CCCAAGAGUGUUUGAGAACTT against Zfp297b | inactive: 0.0814
GCUGAGACUAAACAUUGUATT against 2610008E11Rik | inactive: 0.118
GGAGCUGAAGAUCAAGGAGTT against Pkn3 | inactive: 1.12
GGAAAUGAUCCAUCAACUCTT against Lgr7 | inactive: -0.388
